Measurements published in paper doi:10.1101/2022.10.06.511211.

Chains of the proteins cited; added tags and fusions are not shown. Residues count along the entry.
UniProt Q4ACU6: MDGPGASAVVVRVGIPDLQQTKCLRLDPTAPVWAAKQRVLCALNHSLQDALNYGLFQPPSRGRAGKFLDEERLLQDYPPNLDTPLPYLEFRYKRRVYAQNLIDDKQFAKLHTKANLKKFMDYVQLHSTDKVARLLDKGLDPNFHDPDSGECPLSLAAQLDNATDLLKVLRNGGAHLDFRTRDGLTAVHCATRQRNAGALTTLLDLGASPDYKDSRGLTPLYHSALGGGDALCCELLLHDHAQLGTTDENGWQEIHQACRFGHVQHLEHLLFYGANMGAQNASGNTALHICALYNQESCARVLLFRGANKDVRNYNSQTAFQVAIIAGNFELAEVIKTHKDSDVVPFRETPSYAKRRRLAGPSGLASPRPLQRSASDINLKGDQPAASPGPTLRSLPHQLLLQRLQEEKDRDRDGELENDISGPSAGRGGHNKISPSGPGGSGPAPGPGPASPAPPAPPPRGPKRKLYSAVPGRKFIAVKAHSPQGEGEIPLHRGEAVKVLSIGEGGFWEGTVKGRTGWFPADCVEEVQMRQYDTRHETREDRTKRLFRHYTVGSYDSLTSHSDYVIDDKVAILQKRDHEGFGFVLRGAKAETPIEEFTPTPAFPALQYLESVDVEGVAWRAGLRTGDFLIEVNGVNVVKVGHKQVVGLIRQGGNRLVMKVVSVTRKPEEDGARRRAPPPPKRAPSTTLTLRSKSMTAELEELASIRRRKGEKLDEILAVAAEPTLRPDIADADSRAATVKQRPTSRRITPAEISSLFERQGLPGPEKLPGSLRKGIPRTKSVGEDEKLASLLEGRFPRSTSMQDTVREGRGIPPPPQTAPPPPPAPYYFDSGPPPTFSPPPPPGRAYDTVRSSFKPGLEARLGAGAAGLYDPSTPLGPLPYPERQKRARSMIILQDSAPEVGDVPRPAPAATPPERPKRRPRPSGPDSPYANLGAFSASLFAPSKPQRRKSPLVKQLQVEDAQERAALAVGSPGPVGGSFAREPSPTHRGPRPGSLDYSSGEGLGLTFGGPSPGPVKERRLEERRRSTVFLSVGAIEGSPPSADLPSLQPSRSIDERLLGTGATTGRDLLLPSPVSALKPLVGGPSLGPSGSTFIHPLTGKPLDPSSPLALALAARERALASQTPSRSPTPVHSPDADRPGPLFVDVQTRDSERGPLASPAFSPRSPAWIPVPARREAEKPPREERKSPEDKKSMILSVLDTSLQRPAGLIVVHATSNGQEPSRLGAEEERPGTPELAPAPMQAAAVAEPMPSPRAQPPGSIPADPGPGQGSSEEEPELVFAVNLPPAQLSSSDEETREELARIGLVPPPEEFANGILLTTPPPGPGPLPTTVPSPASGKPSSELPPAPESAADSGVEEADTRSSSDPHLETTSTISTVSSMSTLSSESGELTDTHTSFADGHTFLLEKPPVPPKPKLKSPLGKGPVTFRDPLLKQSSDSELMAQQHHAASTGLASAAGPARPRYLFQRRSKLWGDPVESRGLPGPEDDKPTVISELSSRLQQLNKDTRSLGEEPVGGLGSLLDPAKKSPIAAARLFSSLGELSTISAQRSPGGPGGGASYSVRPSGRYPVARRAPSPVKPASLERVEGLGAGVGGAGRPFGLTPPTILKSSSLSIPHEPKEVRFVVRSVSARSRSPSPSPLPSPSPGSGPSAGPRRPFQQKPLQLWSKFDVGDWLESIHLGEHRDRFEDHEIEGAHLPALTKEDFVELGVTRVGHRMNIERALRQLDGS
UniProt Q8VEK3: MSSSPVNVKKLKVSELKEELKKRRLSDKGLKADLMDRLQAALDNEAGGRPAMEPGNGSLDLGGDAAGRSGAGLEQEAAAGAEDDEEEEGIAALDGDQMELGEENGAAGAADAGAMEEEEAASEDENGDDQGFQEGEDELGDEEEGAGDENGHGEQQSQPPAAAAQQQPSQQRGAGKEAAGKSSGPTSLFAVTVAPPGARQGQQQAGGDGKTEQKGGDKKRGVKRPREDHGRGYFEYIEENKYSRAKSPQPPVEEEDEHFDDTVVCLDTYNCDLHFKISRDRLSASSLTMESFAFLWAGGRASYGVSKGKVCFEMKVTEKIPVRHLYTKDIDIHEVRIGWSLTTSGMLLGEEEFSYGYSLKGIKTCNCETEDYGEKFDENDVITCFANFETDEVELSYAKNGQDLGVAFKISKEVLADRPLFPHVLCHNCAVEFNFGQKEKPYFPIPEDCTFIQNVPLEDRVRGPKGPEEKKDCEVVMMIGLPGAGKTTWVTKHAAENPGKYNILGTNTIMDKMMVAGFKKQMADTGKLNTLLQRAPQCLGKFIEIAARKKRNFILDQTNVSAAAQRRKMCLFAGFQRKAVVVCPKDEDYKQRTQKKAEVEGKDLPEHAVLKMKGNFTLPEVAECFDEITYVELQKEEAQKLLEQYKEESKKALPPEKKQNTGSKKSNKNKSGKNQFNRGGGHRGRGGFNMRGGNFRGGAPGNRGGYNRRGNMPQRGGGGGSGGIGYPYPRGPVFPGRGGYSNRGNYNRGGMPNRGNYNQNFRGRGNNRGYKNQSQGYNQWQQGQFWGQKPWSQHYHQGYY
UniProt Q9CZN4, residues 24-424: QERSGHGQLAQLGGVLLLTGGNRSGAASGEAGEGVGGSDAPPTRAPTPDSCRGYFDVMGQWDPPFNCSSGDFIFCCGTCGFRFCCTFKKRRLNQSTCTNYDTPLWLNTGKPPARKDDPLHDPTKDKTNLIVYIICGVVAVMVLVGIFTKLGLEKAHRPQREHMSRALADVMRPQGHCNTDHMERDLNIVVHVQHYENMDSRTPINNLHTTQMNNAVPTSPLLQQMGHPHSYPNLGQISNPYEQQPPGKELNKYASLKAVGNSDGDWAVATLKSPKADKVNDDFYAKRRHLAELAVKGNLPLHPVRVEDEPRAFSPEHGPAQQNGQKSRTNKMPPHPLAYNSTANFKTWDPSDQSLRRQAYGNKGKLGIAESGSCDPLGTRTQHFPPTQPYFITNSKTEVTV
UniProt Q8CIN4: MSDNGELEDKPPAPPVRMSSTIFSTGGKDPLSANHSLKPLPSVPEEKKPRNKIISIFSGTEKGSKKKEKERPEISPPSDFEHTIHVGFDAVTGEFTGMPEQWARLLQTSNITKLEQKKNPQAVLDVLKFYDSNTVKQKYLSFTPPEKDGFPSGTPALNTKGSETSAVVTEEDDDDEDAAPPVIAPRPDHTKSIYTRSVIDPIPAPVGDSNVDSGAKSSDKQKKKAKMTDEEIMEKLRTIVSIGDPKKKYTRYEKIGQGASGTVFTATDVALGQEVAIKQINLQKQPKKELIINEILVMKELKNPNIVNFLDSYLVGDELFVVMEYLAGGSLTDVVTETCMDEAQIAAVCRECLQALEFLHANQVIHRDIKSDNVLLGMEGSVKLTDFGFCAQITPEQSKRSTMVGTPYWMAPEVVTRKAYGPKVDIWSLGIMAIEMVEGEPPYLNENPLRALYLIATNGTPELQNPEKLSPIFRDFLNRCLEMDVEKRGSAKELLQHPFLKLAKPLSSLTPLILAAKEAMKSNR
UniProt Q00PI9: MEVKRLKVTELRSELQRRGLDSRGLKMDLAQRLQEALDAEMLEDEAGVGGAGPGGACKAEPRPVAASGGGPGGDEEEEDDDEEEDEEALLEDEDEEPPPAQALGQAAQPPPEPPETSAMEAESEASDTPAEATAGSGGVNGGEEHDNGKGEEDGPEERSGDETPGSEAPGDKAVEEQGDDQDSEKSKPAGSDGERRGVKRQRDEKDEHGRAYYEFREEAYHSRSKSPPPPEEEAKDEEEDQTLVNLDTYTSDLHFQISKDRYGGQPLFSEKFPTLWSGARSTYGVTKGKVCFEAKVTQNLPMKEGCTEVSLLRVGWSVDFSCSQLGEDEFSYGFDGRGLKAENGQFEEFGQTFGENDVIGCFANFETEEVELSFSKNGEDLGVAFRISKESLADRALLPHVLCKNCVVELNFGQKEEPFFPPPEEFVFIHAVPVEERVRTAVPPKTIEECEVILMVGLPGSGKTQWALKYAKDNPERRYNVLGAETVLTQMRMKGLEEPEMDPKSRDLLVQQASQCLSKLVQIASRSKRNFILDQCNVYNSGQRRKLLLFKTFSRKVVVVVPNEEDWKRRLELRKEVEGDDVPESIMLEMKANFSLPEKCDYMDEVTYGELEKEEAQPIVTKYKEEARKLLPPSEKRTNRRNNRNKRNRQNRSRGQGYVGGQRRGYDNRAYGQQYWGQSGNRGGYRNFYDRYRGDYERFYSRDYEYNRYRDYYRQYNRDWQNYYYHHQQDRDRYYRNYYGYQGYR
UniProt Q8CJ19: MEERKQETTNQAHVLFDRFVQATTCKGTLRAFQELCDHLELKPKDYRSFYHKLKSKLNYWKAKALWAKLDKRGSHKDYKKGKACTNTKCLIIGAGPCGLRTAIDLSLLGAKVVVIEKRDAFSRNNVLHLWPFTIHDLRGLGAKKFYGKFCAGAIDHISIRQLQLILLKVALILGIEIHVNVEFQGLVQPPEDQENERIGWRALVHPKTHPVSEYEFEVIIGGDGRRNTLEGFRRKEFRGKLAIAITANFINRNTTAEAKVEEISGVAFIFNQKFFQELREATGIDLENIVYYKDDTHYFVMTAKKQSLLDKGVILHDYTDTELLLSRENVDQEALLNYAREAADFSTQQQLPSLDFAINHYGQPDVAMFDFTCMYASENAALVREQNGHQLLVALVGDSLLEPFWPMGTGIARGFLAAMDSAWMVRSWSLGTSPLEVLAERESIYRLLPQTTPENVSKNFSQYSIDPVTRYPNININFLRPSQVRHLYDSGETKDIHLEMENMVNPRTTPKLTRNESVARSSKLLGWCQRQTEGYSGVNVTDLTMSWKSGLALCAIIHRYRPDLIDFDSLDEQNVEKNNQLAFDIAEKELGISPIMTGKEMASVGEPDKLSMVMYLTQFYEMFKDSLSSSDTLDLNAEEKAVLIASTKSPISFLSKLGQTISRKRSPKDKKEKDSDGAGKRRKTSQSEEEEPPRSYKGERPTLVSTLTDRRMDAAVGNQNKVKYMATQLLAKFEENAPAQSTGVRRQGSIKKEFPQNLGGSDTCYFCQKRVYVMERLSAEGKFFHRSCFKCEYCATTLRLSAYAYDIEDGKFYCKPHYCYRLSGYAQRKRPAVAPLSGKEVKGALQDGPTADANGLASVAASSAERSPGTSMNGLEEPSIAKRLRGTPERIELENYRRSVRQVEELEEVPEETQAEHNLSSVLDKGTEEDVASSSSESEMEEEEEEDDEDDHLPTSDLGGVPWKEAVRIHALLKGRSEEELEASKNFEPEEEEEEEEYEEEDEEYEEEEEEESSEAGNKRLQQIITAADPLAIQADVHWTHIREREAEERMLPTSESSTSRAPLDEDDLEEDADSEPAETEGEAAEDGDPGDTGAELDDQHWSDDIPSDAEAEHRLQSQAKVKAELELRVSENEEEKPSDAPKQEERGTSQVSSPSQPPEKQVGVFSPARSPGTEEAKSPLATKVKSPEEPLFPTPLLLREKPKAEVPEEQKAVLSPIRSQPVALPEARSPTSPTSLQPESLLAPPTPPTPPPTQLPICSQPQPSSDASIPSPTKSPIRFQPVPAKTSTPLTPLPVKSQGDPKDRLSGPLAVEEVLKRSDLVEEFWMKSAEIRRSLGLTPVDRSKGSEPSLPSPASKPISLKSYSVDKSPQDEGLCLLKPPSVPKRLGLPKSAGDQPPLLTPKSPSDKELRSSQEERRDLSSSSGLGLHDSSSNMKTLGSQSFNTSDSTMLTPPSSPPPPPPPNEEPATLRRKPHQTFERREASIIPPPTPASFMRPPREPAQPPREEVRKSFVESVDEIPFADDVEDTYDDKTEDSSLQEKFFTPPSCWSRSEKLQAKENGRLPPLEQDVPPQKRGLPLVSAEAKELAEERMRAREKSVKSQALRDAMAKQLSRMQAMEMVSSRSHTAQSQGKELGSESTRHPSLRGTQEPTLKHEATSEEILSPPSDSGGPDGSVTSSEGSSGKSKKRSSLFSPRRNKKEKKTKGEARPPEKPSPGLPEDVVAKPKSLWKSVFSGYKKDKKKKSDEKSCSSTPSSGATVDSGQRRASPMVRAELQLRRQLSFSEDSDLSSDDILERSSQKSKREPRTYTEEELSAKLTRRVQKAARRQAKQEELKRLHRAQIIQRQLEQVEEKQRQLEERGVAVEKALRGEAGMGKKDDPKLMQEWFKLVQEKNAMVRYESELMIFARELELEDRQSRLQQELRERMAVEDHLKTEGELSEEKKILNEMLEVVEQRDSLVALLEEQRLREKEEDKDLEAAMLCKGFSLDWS

What was measured:
Test in all cases: proximity labelling
[1] = biological target: T1, Anks1b (mouse, endogenous, TurboID-HA knock-in) (mouse (endogenous in forebrain)) (UniProt Q8BIZ1)
T1 sequence: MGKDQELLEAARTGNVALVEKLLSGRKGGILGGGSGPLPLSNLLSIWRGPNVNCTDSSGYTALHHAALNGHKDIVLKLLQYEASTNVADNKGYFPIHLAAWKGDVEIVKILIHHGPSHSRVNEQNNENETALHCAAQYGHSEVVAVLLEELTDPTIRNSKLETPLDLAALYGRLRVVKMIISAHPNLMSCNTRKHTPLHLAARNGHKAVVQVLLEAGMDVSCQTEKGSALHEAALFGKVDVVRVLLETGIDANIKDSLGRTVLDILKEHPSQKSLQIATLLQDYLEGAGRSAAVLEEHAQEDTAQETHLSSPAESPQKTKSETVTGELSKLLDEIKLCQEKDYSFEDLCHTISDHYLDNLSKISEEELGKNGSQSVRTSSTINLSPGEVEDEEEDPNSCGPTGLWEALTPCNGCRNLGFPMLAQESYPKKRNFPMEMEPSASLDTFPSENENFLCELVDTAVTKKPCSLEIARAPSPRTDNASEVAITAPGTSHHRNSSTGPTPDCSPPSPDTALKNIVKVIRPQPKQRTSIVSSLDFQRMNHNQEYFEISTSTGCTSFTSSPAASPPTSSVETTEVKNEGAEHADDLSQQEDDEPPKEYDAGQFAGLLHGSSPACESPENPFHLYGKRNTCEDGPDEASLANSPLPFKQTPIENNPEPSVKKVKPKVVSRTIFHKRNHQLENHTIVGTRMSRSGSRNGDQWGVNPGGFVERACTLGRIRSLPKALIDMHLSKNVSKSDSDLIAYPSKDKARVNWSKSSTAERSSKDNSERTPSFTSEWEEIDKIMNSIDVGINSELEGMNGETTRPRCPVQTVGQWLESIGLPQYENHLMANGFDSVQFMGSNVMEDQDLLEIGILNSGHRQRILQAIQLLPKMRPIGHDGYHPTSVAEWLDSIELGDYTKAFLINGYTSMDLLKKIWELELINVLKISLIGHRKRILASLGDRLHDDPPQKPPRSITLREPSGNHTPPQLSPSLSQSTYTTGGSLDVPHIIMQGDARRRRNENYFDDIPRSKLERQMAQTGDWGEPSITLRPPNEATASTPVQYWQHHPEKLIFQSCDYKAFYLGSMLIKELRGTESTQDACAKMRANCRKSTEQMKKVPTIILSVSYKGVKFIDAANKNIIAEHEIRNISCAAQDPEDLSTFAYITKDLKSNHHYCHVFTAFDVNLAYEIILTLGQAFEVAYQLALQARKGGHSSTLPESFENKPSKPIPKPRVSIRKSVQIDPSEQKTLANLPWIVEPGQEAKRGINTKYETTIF

[2] = biological target: Syngap1 (mouse, endogenous, TurboID-HA knock-in) (mouse (endogenous in forebrain)) (UniProt F6SEU4)
[3] = biological target: T2, Syngap1:1-744 (truncated at exon 13, TurboID-HA fusion) (mouse (endogenous in forebrain)) (UniProt F6SEU4)
T2 sequence: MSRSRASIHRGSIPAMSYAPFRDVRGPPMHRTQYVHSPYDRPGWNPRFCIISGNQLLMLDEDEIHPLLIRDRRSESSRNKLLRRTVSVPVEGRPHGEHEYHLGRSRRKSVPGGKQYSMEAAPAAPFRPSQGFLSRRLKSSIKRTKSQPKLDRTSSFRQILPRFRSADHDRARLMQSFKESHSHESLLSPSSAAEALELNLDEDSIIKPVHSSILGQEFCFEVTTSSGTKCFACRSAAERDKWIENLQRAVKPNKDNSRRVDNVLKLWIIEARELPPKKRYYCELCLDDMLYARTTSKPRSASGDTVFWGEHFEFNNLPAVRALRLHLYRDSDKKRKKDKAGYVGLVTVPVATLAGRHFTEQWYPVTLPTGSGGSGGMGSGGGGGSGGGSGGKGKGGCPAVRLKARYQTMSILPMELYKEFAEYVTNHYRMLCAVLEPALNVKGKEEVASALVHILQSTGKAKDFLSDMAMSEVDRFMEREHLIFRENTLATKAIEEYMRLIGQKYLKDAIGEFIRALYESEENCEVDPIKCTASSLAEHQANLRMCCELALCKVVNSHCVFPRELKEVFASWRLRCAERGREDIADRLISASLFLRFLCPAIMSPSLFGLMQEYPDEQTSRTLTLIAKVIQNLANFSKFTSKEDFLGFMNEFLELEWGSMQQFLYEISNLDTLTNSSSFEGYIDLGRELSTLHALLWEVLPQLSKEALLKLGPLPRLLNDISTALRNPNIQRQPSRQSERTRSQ

[4] = biological target: Ank3 (mouse, endogenous, TurboID-HA knock-in) (mouse (endogenous in forebrain)) (UniProt G5E8K5)
[5] = biological target: Shank3 (mouse, endogenous, TurboID-HA knock-in) (mouse (endogenous in forebrain)) (UniProt Q4ACU6)
[6] = biological target: Hnrnpu (mouse, endogenous, TurboID-HA knock-in) (mouse (endogenous in forebrain)) (UniProt Q8VEK3)

binding [1] | binding [2] | Substance | other results
binds | binds | Dyrk1a (from UniProt Q61214 1-763) (enzyme) | –
– | binds | Shisa9 (from UniProt Q9CZN4 24-424) | binding [3]: binds
– | – | Itsn1 (from UniProt Q9Z0R4 1-1714) | binding [4]: binds; binding [5]: binds
binds | binds | Ntrk3 (from UniProt Q6VNS1 32-825) (receptor) | –
binds | binds | Pak2 (from UniProt Q8CIN4 1-524) (enzyme) | –
– | – | Hnrnpul2 (from UniProt Q00PI9 1-745) | binding [6]: binds
– | – | Mical3 (from UniProt Q8CJ19 1-1993) | binding [4]: binds

No constants are given. Whether binding was seen depends on the method and setting. In cells and extracts the contact can be indirect. Here binding means that the protein was enriched with, or labelled near, the bait; the list need not be complete. For part of these data: Tags and fused reporters may be left off the sequences shown.
